Assay [1] relates to mice with OVA-induced allergic asthma. Put plainly: Circulating leukocyte cell counts (Experimental Groups II). The settings on record: i.n.; FB all tested doses (0.3, 1.0, 3.0 nmol/animal); B and F 3 nmol/animal. The format is in vivo. As to the method: (§1) Male Balb/c SPF mice (25*2 g, 6-week-old) were purchased from the animal house facilities at the São Paulo School of Medicine (Federal University of São Paulo, Brazil). They were group-housed in a temperature-controlled room at 22° C. with a 12/12-hour light/dark cycle and allowed free access to food and water. The study is in agreement with the Ethical Principles for Animal Research established by the Brazilian College for Animal Experimentation (COBEA). According to the internal laboratory rules, euthanasia is performed if severe distress related to the test agents developed during the experiment. […] The compounds were dissolved in DMSO (Sigma Chemical Co., St. Louis, MO) at concentrations at which the determined dose per animal results from the intraperitoneal administration of 100 μl of solution (1:10 DMSO) and intra-nasal (i.n.) administration of 10 μl/animal (5 μl/nostril) of the solutions. Mice were sensitized with two subcutaneous injections of 0.4 ml of OVA/Al(OH)3, with an interval of 7 days (Sham animals received the Al(OH)3 suspension in PBS with no OVA). […] Total cell counts were determined using a Neubauer chamber, and differential counting was carried out in cytospin (Fanem Mod 2400; São Paulo, Brazil) preparations stained with May-Grünwald dye. […]

For assay [2] the test system is unchanged. Put plainly: BAL fluid cell counts (Experimental Groups II). The format is in vivo. As to conditions: i.n.; all treatments: FB 0.3, 1.0, 3.0 nmol/animal; F and B 3.0 nmol/animal. The protocol: as §1

Each structure is given as a SMILES string.

Turning to `COc1ccc(CC(C)NCC(O)c2ccc(O)c(NC=O)c2)cc1` (centres unmarked) [F, N-[2-hydroxy-5-[1-hydroxy-2-[[2-(p-methoxyphenyl)-2-propy]-amino]-ethyl]-phenyl]-formamide, reference compound], in assay [1], the circulating macrophages result was “devoid of any effect”. Moreover, in assay [2], the “eosinophils in BAL samples” value was “significantly controlled”.

Values taken from patent publication US12465614B2, “Budesonide 21-phosphate salts and pharmaceutical compositions containing the same” (GENETIC S.P.A., priority 2020, dated 2025).
